Patent US20260226176A1 (THERANOVIR, published 2026)
Results are given in words; binding and its absence hold for the method and conditions named. Some binding calls cover weakened binding; strength is not graded here. Values belong to the binder of their own block, whether it stands above or below them.

Chains of the proteins cited; added tags and fusions are not shown. Residues count along the entry.
UniProt O14786, residues 22-856: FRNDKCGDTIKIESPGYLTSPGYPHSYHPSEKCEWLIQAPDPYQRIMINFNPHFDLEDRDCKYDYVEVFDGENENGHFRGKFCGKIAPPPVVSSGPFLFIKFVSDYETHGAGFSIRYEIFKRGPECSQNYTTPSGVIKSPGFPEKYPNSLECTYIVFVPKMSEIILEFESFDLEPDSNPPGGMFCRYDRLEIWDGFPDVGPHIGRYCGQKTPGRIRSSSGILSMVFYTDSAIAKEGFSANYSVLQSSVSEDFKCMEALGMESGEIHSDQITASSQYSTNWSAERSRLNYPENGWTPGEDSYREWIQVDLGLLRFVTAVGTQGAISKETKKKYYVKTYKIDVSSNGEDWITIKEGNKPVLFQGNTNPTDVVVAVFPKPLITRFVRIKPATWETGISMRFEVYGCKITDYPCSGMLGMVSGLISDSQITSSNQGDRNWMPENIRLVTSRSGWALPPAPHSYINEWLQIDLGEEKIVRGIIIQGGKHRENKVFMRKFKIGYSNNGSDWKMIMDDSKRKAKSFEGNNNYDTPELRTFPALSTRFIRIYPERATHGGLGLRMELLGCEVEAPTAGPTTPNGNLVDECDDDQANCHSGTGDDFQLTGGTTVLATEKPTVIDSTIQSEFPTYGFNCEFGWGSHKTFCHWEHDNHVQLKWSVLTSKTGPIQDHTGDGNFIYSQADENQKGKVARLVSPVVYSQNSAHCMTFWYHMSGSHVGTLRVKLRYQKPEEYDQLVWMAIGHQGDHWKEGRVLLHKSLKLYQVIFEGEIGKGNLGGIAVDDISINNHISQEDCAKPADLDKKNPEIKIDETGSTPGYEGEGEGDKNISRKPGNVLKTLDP

Target: recombinant human NRP-1 (3870-N1-025, Bio-Techne) (human) (UniProt O14786)
Test: ELISA

binding: binds
B1: variant 6 a-NRP1_LEP n° 1 (antibody, V domains shown)
VH: EVQLVESGGGLVQPGGSLRLSCAASGFTFSSYSMHWVRQAPGKGLEWVSYISSGSSTIHYADSVKGRFTISRDNAKNSLYLQMNSLRAEDTAVYYCARRHYGSSRYWYFDVWGQGTTVTVSS
VL: DIQMTQSPSTLSASVGDRVTITCRASQSIKSYLAWYQQKPGKAPKLLIYYASSLASGVPSRFSGSGSGTEFTLTISSLQPDDFATYYCQQYGESSYTFGQGTKLEIK
notes: humanized variant of 21B10; isotype control hIgG4; also called Var6; variant no 6

binding: binds
B2: variant 8 a-NRP1_LEP n° 1 (antibody, V domains shown)
VH: B1 VH
VL: EIVLTQSPATLSLSPGERATLSCRASQSVKSYLAWYQQKPGQAPRLLIYYASSRATGIPARFSGSGSGTDFTLTISSLEPEDFAVYYCQQYSESPYTFGQGTKLEIK
notes: humanized variant of 21B10; isotype control hIgG4; also called Var8; variant no 8
